Test results reported in the supplement of paper PMC7666118.
Some of the results follow.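 How the source made its calls: active = dose-dependent thermal stabilisation significant by F-test of dose-response against flat model at 10% FDR; inactive = not significant.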

Sequences of proteins named here, by UniProt entry; tags and fusion partners are left off. A change or cut given only in a name is not applied to a line headed by its entry.
UniProt Q14247: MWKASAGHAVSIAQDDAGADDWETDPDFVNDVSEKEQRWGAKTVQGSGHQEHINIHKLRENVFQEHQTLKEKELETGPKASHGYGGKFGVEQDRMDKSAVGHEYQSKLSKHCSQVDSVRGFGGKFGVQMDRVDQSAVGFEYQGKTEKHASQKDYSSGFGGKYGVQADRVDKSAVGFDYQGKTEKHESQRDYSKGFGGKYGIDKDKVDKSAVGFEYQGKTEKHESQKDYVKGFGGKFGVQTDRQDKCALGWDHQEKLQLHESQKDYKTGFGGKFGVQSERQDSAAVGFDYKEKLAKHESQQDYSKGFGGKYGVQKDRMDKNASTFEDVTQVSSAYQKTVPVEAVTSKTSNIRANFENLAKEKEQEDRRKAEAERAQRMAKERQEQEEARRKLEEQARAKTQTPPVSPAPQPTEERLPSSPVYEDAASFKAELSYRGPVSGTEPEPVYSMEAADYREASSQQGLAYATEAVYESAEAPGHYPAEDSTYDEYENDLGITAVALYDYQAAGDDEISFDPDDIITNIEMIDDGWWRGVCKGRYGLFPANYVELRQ
UniProt O76075: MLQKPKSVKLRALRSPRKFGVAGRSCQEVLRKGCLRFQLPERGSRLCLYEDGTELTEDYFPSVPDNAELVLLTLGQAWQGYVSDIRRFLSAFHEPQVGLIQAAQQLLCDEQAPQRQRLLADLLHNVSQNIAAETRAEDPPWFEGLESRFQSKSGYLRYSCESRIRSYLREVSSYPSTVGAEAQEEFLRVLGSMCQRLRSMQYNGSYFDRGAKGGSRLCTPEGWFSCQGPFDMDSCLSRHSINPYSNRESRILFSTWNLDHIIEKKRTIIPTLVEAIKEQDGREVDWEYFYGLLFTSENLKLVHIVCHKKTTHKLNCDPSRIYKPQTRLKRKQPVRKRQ
UniProt P49366: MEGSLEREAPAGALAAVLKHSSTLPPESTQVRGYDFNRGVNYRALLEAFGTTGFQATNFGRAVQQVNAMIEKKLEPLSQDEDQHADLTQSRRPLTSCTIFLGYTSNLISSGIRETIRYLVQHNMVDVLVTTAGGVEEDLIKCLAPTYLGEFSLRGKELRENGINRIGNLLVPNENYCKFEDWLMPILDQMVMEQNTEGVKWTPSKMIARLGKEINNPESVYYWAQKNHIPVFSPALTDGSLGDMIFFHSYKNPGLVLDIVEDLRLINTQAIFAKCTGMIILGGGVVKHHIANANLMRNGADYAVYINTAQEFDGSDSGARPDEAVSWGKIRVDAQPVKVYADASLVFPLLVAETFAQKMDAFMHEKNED
UniProt Q7Z4W1: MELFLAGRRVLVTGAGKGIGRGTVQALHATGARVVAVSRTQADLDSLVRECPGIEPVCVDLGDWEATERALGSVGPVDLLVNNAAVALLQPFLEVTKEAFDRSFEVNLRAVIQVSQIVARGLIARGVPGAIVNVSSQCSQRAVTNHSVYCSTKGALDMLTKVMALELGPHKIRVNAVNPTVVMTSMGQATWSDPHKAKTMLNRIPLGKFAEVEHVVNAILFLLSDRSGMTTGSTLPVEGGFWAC
UniProt Q9H2U1: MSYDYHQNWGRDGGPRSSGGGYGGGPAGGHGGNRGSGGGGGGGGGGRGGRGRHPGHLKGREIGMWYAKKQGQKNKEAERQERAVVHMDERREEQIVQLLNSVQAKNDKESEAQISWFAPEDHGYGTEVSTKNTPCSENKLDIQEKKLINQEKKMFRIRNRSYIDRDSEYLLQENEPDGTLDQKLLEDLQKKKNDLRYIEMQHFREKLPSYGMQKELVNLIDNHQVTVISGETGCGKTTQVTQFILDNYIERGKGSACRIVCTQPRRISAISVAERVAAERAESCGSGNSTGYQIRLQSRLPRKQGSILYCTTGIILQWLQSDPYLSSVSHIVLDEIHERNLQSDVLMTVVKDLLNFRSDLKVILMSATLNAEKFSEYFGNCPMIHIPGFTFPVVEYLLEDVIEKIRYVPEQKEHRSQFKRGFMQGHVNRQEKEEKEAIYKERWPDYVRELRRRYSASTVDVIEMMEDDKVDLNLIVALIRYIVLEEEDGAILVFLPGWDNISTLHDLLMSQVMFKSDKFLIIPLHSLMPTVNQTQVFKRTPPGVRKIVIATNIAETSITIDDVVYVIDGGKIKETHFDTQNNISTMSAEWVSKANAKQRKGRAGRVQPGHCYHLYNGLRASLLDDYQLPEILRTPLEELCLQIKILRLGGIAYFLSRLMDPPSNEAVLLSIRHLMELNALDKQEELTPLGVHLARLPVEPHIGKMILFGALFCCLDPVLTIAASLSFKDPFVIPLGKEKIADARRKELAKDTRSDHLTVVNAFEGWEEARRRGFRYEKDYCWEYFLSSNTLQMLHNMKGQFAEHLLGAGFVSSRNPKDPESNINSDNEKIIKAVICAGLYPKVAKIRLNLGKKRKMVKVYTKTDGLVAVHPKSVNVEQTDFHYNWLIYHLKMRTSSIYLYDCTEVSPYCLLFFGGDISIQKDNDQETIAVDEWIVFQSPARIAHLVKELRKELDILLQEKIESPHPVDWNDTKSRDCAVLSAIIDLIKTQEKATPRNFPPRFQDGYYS
UniProt Q92499: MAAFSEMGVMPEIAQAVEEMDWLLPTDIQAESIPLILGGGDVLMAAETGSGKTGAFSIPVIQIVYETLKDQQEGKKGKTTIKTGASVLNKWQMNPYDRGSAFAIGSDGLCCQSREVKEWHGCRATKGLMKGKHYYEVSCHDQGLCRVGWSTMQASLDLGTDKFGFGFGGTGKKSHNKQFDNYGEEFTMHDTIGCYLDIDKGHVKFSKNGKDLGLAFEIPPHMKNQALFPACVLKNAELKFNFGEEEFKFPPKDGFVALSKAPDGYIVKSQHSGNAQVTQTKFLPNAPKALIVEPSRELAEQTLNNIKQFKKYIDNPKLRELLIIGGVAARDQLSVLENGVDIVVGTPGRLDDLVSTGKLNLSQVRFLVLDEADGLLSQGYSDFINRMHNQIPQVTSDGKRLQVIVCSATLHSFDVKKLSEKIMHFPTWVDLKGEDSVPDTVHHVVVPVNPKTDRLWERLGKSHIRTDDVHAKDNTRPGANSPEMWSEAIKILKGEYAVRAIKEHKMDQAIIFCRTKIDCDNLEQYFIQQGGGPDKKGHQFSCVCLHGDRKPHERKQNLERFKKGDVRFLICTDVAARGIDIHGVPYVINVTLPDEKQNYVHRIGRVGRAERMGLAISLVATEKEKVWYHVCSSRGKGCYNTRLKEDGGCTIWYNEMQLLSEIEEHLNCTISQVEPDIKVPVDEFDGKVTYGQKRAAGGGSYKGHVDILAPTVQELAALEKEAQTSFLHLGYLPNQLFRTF
UniProt Q12996: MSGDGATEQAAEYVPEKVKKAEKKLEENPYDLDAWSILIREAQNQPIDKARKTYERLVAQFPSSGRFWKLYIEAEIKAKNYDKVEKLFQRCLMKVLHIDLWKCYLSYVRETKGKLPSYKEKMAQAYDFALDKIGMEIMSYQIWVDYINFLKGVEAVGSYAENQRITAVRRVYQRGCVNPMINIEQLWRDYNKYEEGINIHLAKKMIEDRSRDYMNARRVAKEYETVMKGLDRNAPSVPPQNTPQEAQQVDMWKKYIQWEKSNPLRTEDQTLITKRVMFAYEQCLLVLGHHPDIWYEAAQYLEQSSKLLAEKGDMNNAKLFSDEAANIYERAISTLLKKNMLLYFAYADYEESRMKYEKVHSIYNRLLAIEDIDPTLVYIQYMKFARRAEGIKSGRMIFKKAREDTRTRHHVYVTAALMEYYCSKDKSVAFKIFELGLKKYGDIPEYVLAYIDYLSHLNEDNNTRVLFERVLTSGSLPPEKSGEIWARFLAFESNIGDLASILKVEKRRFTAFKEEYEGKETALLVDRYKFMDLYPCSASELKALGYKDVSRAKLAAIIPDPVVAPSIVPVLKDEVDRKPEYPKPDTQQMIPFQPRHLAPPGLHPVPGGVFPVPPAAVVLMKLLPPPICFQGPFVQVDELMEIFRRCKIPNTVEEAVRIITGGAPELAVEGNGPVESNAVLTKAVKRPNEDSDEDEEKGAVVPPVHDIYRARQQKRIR
UniProt Q56P03: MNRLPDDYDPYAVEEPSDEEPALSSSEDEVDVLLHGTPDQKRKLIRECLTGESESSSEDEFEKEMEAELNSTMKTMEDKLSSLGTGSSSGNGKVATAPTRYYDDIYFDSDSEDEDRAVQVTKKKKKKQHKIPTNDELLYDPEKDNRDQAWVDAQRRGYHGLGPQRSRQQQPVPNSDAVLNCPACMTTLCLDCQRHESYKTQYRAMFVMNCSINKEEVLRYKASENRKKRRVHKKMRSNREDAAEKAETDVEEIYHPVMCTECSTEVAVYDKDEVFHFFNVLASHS
UniProt Q9Y4B6: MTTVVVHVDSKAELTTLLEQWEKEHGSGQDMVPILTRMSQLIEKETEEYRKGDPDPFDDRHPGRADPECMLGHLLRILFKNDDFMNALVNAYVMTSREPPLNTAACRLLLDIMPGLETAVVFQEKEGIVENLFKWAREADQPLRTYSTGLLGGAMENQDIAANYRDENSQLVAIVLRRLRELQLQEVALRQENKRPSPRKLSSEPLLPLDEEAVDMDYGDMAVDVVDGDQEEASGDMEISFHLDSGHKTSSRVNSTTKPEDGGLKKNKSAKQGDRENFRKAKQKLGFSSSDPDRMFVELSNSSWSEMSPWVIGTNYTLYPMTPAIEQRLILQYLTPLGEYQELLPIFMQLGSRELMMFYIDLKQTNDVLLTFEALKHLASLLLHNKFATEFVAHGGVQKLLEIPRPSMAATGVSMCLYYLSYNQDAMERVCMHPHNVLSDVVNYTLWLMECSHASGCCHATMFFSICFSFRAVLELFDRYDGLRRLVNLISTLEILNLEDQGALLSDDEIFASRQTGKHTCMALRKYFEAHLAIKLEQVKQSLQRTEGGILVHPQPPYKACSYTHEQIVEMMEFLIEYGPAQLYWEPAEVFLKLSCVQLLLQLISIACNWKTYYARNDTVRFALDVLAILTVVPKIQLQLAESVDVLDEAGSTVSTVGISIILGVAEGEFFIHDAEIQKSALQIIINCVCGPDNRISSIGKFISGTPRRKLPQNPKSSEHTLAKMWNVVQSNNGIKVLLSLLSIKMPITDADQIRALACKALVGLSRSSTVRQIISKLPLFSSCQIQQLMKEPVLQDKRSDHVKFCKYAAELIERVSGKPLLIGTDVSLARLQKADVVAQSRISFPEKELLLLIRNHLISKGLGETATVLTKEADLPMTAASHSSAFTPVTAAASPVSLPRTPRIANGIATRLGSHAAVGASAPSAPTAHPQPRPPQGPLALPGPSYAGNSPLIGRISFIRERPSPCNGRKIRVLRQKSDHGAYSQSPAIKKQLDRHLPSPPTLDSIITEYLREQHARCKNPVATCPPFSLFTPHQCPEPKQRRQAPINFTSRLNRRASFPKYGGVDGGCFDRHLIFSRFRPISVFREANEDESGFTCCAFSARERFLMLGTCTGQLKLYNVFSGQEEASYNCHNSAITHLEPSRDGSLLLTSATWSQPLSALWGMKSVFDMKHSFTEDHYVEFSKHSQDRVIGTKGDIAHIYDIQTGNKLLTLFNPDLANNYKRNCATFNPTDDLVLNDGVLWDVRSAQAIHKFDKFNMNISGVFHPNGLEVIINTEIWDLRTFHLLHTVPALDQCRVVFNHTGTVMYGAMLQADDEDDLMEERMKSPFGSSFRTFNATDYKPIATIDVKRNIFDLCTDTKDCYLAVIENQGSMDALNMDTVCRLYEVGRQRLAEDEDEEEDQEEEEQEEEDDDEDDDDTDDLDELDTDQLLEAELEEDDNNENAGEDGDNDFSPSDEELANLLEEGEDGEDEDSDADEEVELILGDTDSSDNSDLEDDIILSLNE
UniProt Q99615: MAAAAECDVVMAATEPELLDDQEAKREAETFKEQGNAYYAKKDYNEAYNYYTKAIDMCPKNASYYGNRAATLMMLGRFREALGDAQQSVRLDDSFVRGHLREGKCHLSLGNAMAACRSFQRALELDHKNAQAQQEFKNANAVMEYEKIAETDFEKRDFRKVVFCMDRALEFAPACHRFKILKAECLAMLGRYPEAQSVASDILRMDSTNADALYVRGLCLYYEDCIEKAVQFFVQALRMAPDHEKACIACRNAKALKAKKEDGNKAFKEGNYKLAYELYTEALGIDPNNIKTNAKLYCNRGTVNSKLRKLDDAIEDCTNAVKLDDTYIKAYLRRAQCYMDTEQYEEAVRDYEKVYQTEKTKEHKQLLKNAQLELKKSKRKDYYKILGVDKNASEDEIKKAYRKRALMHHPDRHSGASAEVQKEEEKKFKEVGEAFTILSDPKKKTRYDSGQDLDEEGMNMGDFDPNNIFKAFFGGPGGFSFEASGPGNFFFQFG
UniProt P81605: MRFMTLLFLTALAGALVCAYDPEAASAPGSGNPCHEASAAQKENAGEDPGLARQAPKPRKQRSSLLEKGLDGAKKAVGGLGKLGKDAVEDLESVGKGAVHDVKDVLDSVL
UniProt P67870, whole entry: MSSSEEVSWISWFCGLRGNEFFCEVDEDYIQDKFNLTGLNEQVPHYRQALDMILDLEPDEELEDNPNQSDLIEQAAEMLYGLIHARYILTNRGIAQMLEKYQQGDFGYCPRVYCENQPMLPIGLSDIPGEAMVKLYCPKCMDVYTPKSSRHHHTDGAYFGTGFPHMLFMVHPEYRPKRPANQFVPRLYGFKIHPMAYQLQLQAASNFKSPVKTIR

Compound: Nc1nc2c(ncn2[C@@H]2O[C@H](COP(=O)(O)OP(=O)(O)OP(=O)(O)O)[C@@H](O)[C@H]2O)c(=O)[nH]1
Assay: dose-dependent thermal stabilisation call (2D-TPP, DLPTP, 10% FDR) (binary (1 = stabilised)); higher = stabilised by the compound
Settings: system: Jurkat gel-filtered lysate; concentration range 1-500 µM

Row | Target | dose-dependent thermal stabilisation call
1 | CUL4B (UniProt Q13620) | inactive: 0
2 | DGCR8 (UniProt Q8WYQ5) | active: 1
3 | CTTN (UniProt Q14247) | inactive: 0
4 | DNMBP (UniProt Q6XZF7) | inactive: 0
5 | DMAP1 (UniProt Q9NPF5) | inactive: 0
6 | DDX42 (UniProt Q86XP3) | active: 1
7 | DOK2 (UniProt O60496) | active: 1
8 | DDHD1 (UniProt Q8NEL9) | inactive: 0
9 | DFFB (UniProt O76075) | inactive: 0
10 | E2F3 (UniProt O00716) | inactive: 0
11 | DIP2A (UniProt Q14689) | inactive: 0
12 | CREBBP (UniProt Q92793) | inactive: 0
13 | DENND4C (UniProt Q5VZ89) | inactive: 0
14 | CRACR2A (UniProt Q9BSW2) | inactive: 0
15 | DHPS (UniProt P49366) | inactive: 0
16 | CSTF2 (UniProt P33240) | inactive: 0
17 | DCXR (UniProt Q7Z4W1) | inactive: 0
18 | CSPP1 (UniProt Q1MSJ5) | inactive: 0

Quoted from the listing.
In dose-dependent thermal stabilisation call, CREBBP (UniProt Q92793) has the entry inactive: 0
In dose-dependent thermal stabilisation call, DIP2A (UniProt Q14689) has the entry inactive: 0

Later entries:

Row | Target | dose-dependent thermal stabilisation call
19 | DAP3 (UniProt P51398) | inactive: 0
20 | DHX36 (UniProt Q9H2U1) | inactive: 0
21 | DDX1 (UniProt Q92499) | inactive: 0
22 | DAB2IP (UniProt Q5VWQ8) | inactive: 0
23 | CSTF3 (UniProt Q12996) | inactive: 0
24 | DAZAP1 (UniProt Q96EP5) | inactive: 0
25 | DHX38 (UniProt Q92620) | active: 1
26 | EEF2KMT (UniProt Q96G04) | inactive: 0
27 | CTSC (UniProt P53634) | inactive: 0
28 | EAPP (UniProt Q56P03) | inactive: 0
29 | DCAF1 (UniProt Q9Y4B6) | inactive: 0
30 | DNAJC7 (UniProt Q99615) | inactive: 0
31 | DHX8 (UniProt Q14562) | active: 1
32 | DNM2 (UniProt P50570) | active: 1
33 | DCD (UniProt P81605) | inactive: 0
34 | CUL2 (UniProt Q13617) | inactive: 0
35 | DCP1A (UniProt Q9NPI6) | inactive: 0
36 | CSNK2B (UniProt P67870) | active: 1
